# Experimental data: PubChem BioAssay AID504791 (Drosophila RNAi Screening Center, 2011)
# Test: 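Genes whose knock-down strengthens or weakens small-RNA reporter silencing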 (primary screen)
# Cells: Drosophila S2-derived reporter cells
# Knock-down reagent: long dsRNA against Drosophila genes, about 150-250 ng dsRNA per well (siRNA assay); about 80-120 ng (miRNA assay)
# Duration: about 5 days (siRNA assay); about 4 days (miRNA assay)
# Treatment: copper sulfate induction of reporters: 25 µM (siRNA assay); 200 mM stated (miRNA assay), 1-2 days before reading
# Detection: 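Per-well ratio of Renilla over firefly light, expressed relative to that plate's average ratio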
# Active means: 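a well was a first-pass pick when its plate-scaled ratio rose above 1.5 (siRNA assay) or 1.6 (miRNA assay), or dropped below 0.6; a gene counted only if two separate dsRNAs agreed on retest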
# In all, the deposit lists about 23,000 reagents; shown is an unselected part of those that have a named target and a result. Of all reagents, 199 (0.86%) were called active. 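Plate-scaled ratios behind the calls are not deposited; printed light signals are raw; many rows marked increased or decreased are still called inactive.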 Entries without a mark were called inactive. A plus sign joins genes that one reagent is predicted to hit. Reagent sequences are not shown. Not given: the direction of the score.
target gene,dsRNA,miRNA reporter change,"stable assay Renilla, run 1 (luminescence)","stable assay firefly, run 1 (luminescence)"
rost,DRSC03603,,6068,5.63e5
RabX5,DRSC08608,,6755,4.37e5
Echs1,DRSC06999,,7082,4.84e5
Rab8,DRSC11261,,10741,3.30e5
CG31259,DRSC14366,,6371,3.72e5
CG6567 + CG4565,DRSC15599,,5855,3.53e5
GPHR,DRSC07075,,6751,3.50e5
UGP + PGRP-LF,DRSC10418,,6243,4.23e5
Tom7,DRSC05135,,5407,4.13e5
Tom7,DRSC07113,,6231,3.68e5
CG6839,DRSC10723,,10389,3.83e5
alpha-Est1,DRSC12612,,9789,4.69e5
CG16965,DRSC02547,,8150,5.07e5
CG31007,DRSC14029,,6583,2.87e5
Obp28a,DRSC03394,,8158,5.51e5
PEK,DRSC12361,,7636,3.57e5
Cpsf160,DRSC05968,,8199,4.89e5
CNMaR,DRSC08992,,3691,3.37e5
CNMaR,DRSC10224,,5499,3.31e5
CG14708,DRSC14930,,6894,3.53e5
RpS7,DRSC15394,reporter ratio lowered past the hit cutoff (active),6083,4.15e5
RpS7,DRSC28468,reporter ratio lowered past the hit cutoff (active),,
CG6321,DRSC10623,,7274,4.28e5
PH4alphaPV,DRSC22400,,5667,6.32e5
PH4alphaPV,DRSC28020,reporter ratio lowered past the hit cutoff,,
trbd,DRSC16494,,8283,3.96e5
Rcc1,DRSC09684,,10010,4.06e5
Eglp4,DRSC04438,,6698,2.66e5
BEAF-32 + CG42254 (retired record),DRSC05503,,6791,5.05e5
Qtzl,DRSC01221,,5319,4.54e5
RpS10b,DRSC19561,,4827,3.43e5
CG6813,DRSC16122,,6679,3.31e5
Camp,DRSC07004,,6467,3.69e5
SiaT,DRSC04494,,6444,2.93e5

Records above whose target name starts with T or t (3):
target gene,dsRNA,miRNA reporter change,"stable assay Renilla, run 1 (luminescence)","stable assay firefly, run 1 (luminescence)"
Tom7,DRSC05135,,5407,4.13e5
Tom7,DRSC07113,,6231,3.68e5
trbd,DRSC16494,,8283,3.96e5
